Among the data in paper PMC3718791 are binding values, retold here.

The target in assay [1] is T1, MYC-tagged SERBP1 (mouse) (UniProt Q9CY58).
T1 sequence: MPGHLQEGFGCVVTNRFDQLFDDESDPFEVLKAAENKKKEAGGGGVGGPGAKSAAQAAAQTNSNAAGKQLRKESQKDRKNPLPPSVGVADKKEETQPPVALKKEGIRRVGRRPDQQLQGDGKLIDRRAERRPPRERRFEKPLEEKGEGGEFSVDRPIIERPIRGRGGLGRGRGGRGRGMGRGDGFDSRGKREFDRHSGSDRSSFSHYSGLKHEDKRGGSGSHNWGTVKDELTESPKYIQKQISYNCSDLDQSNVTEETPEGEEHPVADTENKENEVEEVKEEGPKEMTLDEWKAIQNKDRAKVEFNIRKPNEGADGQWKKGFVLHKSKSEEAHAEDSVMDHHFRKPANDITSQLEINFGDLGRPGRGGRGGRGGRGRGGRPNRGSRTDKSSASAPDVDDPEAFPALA
The experiment in a line: co-IP; HEK293T cells transfected with tagged proteins; lysis in 25 mM Tris-Cl pH7.4, 150 mM NaCl, 1% Triton X-100; MYC antibody pre-bound to Protein A Sepharose, 8 hours at 4°C; Western blot with HA or SERBP1 antibody. On the technique in general: Immunoblotting shows a protein as a band on a membrane.

The target of assay [2] is MYC-tagged SPIN1 (wild type) (mouse). The description is as above.

No constants are given. Whether binding was seen depends on the method and setting. In cells and extracts the contact can be indirect. Binding calls can cover weak binding; strength is not graded here. Where a sequence is shown, tags or fusion partners need not be part of it.

As for HA-tagged SPIN1 (mouse), the binding result in assay [1] is “binds”.

B1: HA-tagged HABP4 (protein, UniProt Q9JKS5 1-411)
chain: MKGALGSPVAAAGAAMQETFGCVVANRFHQLLDDESDPFDILREAEHRRQQQLQRKRRDEAAAASGAGHRGGRSPAVASGHRPGAGGRRESQKERKSLAASGAQQPDSPGGPQPPGQKRTPRRGEQQGWNDNRGTDVVLERAERRSYREYRPYETERQADLPVEKFTDEKPVDRFDRDRPLRGRGGPRGGLRSRGRGGPGNRAFDSFDQRGKRDFERYSSNDKTNRMEDSMGGCGIRPWGSGKDTSDTEPPAPMEETSMMEECQGTLDEESAAKVPELEVEEENQVQEMTLDEWKNLQEQTRPKPEFNIRKPESTVPSKAVVIHKSRYRDDMVKEDYEDESHVFRKAANDITSQLEINFGNLPRPGRGARGSTRGGRGRMRRTENYGPRAEVVTQDVAPNPDDPEDFPALA
Take B1: in assay [2], the binding result was “binds”.

B2: HA-tagged SERBP1 (protein, UniProt Q9CY58 1-407)
chain: MPGHLQEGFGCVVTNRFDQLFDDESDPFEVLKAAENKKKEAGGGGVGGPGAKSAAQAAAQTNSNAAGKQLRKESQKDRKNPLPPSVGVADKKEETQPPVALKKEGIRRVGRRPDQQLQGDGKLIDRRAERRPPRERRFEKPLEEKGEGGEFSVDRPIIERPIRGRGGLGRGRGGRGRGMGRGDGFDSRGKREFDRHSGSDRSSFSHYSGLKHEDKRGGSGSHNWGTVKDELTESPKYIQKQISYNCSDLDQSNVTEETPEGEEHPVADTENKENEVEEVKEEGPKEMTLDEWKAIQNKDRAKVEFNIRKPNEGADGQWKKGFVLHKSKSEEAHAEDSVMDHHFRKPANDITSQLEINFGDLGRPGRGGRGGRGGRGRGGRPNRGSRTDKSSASAPDVDDPEAFPALA
Take B2: the binding result in assay [2] is given as “binds”.
